Assay results as given in PMC4691244.
Read-outs that look alike come from different tables or passages of the source. Results are given in words; binding and its absence hold for the method and conditions named. In cells and extracts the contact can be indirect. Here binding means that the protein was enriched with, or labelled near, the bait; the list need not be complete. No binding means not detected with the bait. For some assays here: Tags and fused reporters may be left off the sequences shown.

Amino acid sequences for entries named in this document (tags omitted).
UniProt Q9Y580: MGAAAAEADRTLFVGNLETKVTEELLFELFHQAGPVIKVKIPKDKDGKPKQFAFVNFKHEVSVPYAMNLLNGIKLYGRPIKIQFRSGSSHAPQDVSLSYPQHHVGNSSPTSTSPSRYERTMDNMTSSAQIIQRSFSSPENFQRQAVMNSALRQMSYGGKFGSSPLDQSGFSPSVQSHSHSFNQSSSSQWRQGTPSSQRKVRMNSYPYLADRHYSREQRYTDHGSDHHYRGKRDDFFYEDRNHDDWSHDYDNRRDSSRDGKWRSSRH

T1: FLAG-DGCR8 (human) (UniProt Q8WYQ5)
T1 sequence: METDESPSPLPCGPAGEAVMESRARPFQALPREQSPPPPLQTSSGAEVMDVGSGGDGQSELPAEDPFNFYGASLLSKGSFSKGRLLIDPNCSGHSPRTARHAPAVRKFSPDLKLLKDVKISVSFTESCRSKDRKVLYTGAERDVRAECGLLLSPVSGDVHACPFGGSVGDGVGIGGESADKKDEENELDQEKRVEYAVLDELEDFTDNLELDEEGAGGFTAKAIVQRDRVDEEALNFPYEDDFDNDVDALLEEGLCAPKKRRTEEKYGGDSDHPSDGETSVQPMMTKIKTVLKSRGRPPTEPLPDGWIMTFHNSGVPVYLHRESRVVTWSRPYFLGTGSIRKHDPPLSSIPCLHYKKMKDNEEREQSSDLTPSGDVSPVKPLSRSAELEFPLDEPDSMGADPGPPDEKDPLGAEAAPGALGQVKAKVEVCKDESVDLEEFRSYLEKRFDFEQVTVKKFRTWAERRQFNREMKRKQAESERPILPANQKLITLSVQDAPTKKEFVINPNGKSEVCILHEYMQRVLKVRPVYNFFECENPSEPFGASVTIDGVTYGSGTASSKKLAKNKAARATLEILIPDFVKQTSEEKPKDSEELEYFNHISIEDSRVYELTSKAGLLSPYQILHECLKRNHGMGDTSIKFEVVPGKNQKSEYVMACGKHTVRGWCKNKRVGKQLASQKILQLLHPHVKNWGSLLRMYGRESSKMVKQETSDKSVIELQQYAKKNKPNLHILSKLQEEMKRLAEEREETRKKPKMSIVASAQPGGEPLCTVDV

T2: T7-DGCR8 (human) (UniProt Q8WYQ5)
T2 sequence: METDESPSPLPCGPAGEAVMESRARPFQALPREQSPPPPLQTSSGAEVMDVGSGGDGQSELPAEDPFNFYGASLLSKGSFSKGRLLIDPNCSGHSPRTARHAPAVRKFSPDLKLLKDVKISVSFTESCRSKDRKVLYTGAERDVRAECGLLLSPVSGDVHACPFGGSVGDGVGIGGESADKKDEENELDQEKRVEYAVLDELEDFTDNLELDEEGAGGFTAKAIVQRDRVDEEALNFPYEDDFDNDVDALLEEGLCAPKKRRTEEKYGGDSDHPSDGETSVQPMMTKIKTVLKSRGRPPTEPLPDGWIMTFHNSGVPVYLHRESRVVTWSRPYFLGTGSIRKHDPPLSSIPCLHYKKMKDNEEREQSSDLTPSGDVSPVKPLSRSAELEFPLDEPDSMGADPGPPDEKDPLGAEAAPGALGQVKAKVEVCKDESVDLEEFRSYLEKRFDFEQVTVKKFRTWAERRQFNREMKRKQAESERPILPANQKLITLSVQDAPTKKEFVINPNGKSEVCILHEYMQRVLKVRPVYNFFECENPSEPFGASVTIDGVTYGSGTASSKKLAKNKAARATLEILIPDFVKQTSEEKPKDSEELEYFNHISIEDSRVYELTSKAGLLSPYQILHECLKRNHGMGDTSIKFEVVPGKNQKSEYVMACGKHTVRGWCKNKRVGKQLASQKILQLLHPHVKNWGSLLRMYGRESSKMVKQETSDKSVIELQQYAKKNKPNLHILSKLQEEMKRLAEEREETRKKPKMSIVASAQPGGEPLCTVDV

T3: FLAG-DGCR8 (human), Q8WYQ5
T3 chain: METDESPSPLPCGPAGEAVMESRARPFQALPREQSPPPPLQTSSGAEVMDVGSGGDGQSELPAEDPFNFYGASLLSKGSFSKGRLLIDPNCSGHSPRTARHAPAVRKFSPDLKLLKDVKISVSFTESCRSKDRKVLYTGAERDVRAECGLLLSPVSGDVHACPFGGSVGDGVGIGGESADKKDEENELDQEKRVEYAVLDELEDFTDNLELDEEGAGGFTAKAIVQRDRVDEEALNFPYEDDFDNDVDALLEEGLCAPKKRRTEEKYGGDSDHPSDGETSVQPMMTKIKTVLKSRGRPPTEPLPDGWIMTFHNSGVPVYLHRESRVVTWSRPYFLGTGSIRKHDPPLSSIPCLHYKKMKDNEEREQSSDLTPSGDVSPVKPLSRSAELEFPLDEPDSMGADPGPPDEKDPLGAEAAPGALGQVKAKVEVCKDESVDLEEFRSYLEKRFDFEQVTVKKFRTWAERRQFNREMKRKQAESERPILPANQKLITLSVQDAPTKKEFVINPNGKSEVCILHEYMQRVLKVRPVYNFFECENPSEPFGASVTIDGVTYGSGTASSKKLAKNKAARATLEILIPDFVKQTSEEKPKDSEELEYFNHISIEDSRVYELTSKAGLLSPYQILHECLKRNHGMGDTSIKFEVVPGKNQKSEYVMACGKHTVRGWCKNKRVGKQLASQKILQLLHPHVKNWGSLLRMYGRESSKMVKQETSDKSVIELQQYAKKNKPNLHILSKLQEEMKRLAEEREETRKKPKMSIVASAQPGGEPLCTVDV

T4: T7-DGCR8 (human), Q8WYQ5
T4 chain: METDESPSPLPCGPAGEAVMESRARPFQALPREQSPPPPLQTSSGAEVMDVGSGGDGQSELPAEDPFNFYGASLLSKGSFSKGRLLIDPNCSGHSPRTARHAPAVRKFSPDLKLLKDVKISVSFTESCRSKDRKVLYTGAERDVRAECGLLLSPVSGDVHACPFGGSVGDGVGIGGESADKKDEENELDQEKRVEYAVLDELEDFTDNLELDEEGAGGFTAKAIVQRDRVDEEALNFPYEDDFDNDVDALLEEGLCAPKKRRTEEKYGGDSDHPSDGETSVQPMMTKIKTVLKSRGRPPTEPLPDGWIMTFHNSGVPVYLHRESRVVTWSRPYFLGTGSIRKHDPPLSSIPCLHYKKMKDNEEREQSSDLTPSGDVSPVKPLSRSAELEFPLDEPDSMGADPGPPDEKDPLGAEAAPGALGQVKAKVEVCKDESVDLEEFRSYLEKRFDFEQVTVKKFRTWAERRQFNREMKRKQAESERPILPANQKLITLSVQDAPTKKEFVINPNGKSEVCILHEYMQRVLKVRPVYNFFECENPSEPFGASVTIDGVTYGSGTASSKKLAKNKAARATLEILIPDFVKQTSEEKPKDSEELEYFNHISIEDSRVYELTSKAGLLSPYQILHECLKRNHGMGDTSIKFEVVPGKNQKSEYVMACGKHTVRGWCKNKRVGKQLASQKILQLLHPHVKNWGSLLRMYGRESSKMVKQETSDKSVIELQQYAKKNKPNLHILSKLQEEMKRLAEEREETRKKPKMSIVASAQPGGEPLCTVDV


Columns and labels:
Assay in all cases: affinity purification with mass spectrometry; immunoprecipitation of T7-DGCR8, FLAG-DGCR8 and FLAG-Drosha with their controls; whole gel lanes analysed by mass spectrometry
FLAG-DGCR8 (human) [1] = molecular target: T1, FLAG-DGCR8 (human)
T7-DGCR8 (human) [2] = molecular target: T2, T7-DGCR8 (human)
FLAG-DGCR8 (human) [3] = molecular target: T1, FLAG-DGCR8 (human); remark: listed apart in the source
T7-DGCR8 (human) [4] = molecular target: T2, T7-DGCR8 (human); remark: listed apart in the source
[5] = molecular target: T3, FLAG-DGCR8 (human), Q8WYQ5; conditions: remark: other sources report otherwise
T7-DGCR8 (human), Q8WYQ5 = molecular target: T4, T7-DGCR8 (human), Q8WYQ5; conditions: remark: other sources report otherwise

binding (FLAG-DGCR8 (human) [3]) | binding (T7-DGCR8 (human) [4]) | Molecule | other results
– | – | RBM7 (from UniProt Q9Y580 1-266) | binding (FLAG-DGCR8 (human) [1]): no binding; binding (T7-DGCR8 (human) [2]): no binding
binds | binds | hRRP6 (enzyme, UniProt Q01780 1-885) MAPPSTREPRVLSATSATKSDGEMVLPGFPDADSFVKFALGSVVAVTKASGGLPQFGDEYDFYRSFPGFQAFCETQGDRLLQCMSRVMQYHGCRSNIKDRSKVTELEDKFDLLVDANDVILERVGILLDEASGVNKNQQPVLPAGLQVPKTVVSSWNRKAAEYGKKAKSETFRLLHAKNIIRPQLKFREKIDNSNTPFLPKIFIKPNAQKPLPQALSKERRERPQDRPEDLDVPPALADFIHQQRTQQVEQDMFAHPYQYELNHFTPADAVLQKPQPQLYRPIEETPCHFISSLDELVELNEKLLNCQEFAVDLEHHSYRSFLGLTCLMQISTRTEDFIIDTLELRSDMYILNESLTDPAIVKVFHGADSDIEWLQKDFGLYVVNMFDTHQAARLLNLGRHSLDHLLKLYCNVDSNKQYQLADWRIRPLPEEMLSYARDDTHYLLYIYDKMRLEMWERGNGQPVQLQVVWQRSRDICLKKFIKPIFTDESYLELYRKQKKHLNTQQLTAFQLLFAWRDKTARREDESYGYVLPNHMMLKIAEELPKEPQGIIACCNPVPPLVRQQINEMHLLIQQAREMPLLKSEVAAGVKKSGPLPSAERLENVLFGPHDCSHAPPDGYPIIPTSGSVPVQKQASLFPDEKEDNLLGTTCLIATAVITLFNEPSAEDSKKGPLTVAQKKAQNIMESFENPFRMFLPSLGHRAPVSQAAKFDPSTKIYEISNRWKLAQVQVQKDSKEAVKKKAAEQTAAREQAKEACKAAAEQAISVRQQVVLENAAKKRERATSDPRTTEQKQEKKRLKISKKPKDPEPPEKEFTPYDYSQSDFKAFAGNSKSKVSSQFDPNKQTPSGKKCIAAKKIKQSVGNKSMSFPTGKSDRGFRYNWPQR | –
– | – | hDIS3, Q9Y2L1 1-958 (enzyme) MLKSKTFLKKTRAGGVMKIVREHYLRDDIGCGAPGCAACGGAHEGPALEPQPQDPASSVCPQPHYLLPDTNVLLHQIDVLEDPAIRNVIVLQTVLQEVRNRSAPVYKRIRDVTNNQEKHFYTFTNEHHRETYVEQEQGENANDRNDRAIRVAAKWYNEHLKKMSADNQLQVIFITNDRRNKEKAIEEGIPAFTCEEYVKSLTANPELIDRLACLSEEGNEIESGKIIFSEHLPLSKLQQGIKSGTYLQGTFRASRENYLEATVWIHGDNEENKEIILQGLKHLNRAVHEDIVAVELLPKSQWVAPSSVVLHDEGQNEEDVEKEEETERMLKTAVSEKMLKPTGRVVGIIKRNWRPYCGMLSKSDIKESRRHLFTPADKRIPRIRIETRQASTLEGRRIIVAIDGWPRNSRYPNGHFVRNLGDVGEKETETEVLLLEHDVPHQPFSQAVLSFLPKMPWSITEKDMKNREDLRHLCICSVDPPGCTDIDDALHCRELENGNLEVGVHIADVSHFIRPGNALDQESARRGTTVYLCEKRIDMVPELLSSNLCSLKCDVDRLAFSCIWEMNHNAEILKTKFTKSVINSKASLTYAEAQLRIDSANMNDDITTSLRGLNKLAKILKKRRIEKGALTLSSPEVRFHMDSETHDPIDLQTKELRETNSMVEEFMLLANISVAKKIHEEFSEHALLRKHPAPPPSNYEILVKAARSRNLEIKTDTAKSLAESLDQAESPTFPYLNTLLRILATRCMMQAVYFCSGMDNDFHHYGLASPIYTHFTSPIRRYADVIVHRLLAVAIGADCTYPELTDKHKLADICKNLNFRHKMAQYAQRASVAFHTQLFFKSKGIVSEEAYILFVRKNAIVVLIPKYGLEGTVFFEEKDKPNPQLIYDDEIPSLKIEDTVFHVFDKVKVKIMLDSSNLQHQKIRMSLVEPQIPGISIPTDTSNMDLNGPKKKKMKLGK | binding [5]: no binding; binding (T7-DGCR8 (human), Q8WYQ5): no binding
no binding | no binding | ZCCHC7 (protein, UniProt Q8N3Z6 1-543) MMFGGYETIEAYEDDLYRDESSSELSVDSEVEFQLYSQIHYAQDLDDVIREEEHEEKNSGNSESSSSKPNQKKLIVLSDSEVIQLSDGSEVITLSDEDSIYRCKGKNVRVQAQENAHGLSSSLQSNELVDKKCKSDIEKPKSEERSGVIREVMIIEVSSSEEEESTISEGDNVESWMLLGCEVDDKDDDILLNLVGCENSVTEGEDGINWSISDKDIEAQIANNRTPGRWTQRYYSANKNIICRNCDKRGHLSKNCPLPRKVRRCFLCSRRGHLLYSCPAPLCEYCPVPKMLDHSCLFRHSWDKQCDRCHMLGHYTDACTEIWRQYHLTTKPGPPKKPKTPSRPSALAYCYHCAQKGHYGHECPEREVYDPSPVSPFICYYDDKYEIQEREKRLKQKIKVLKKNGVIPEPSKLPYIKAANENPHHDIRKGRASWKSNRWPQENKETQKEMKNKNRNWEKHRKADRHREVDEDFPRGPKTYSSPGSFKTQKPSKPFHRSSHYHTSREDKSPKEGKRGKQKKKERCWEDDDNDNLFLIKQRKKKS | –
